The text below walks through data of patent US20130324704A1.

These are yes or no findings as the source states them, for the method shown. Some entries that bind do so weakly or less than the wild type. For part of these data: Tags and fused reporters may be left off the sequences shown.

First the molecules themselves.
T1: Mouse EGFL7 (mEGFL7-CB-His) (mouse) (UniProt Q9QXT5)
T1 sequence: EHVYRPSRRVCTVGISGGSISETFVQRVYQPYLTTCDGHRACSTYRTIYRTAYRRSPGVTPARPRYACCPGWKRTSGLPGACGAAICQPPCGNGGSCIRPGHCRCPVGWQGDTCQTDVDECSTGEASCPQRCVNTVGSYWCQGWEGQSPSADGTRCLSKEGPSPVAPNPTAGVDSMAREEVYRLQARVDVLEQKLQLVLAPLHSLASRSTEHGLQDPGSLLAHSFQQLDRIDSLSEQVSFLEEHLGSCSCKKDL

T2: Full length human EGFL7 (human) (UniProt Q9UHF1)
T2 sequence: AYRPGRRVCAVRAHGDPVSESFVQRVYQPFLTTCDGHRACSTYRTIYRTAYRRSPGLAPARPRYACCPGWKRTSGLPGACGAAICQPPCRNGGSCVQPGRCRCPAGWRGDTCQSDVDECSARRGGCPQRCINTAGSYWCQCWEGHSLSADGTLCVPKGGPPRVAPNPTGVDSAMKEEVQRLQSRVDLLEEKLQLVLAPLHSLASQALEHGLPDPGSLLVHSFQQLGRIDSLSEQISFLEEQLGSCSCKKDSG

B1: 18F7.v1 (18F7-graft), IgG (antibody, V domains shown)
VH: EVQLVESGGGLVQPGGSLRLSCAASGYTFIDYYMNWVRQAPGKGLEWVGDINLDNGGTHYNQKFKGRFTISRDNSKNTLYLQMNSLRAEDTAVYYCAREGVYHDYDDYAMDYWGQGTLVTVSS
VL: DIQMTQSPSSLSASVGDRVTITCRTSQSLVHINGITYLHWYQQKPGKAPKLLIYRVSNRFSGVPSRFSGSGSGTDFTLTISSLQPEDFATYYCSQSTHVPLTFGQGTKVEIKR
B2: 18F7.v2, IgG (antibody, name in Kabat numbering, V domains shown)
VH: EVQLVESGGGLVQPGGSLRLSCAASGYTFIDYYMNWVRQAPGKGLEWVGDINLDNGGTHYNQKFKGRFTISRDKSKNTLYLQMNSLRAEDTAVYYCAREGVYHDYDDYAMDYWGQGTLVTVSS
VL: DIQMTQSPSSLSASVGDRVTITCRTSQSLVHINGITYLHWYQQKPGKAPKLLIYRVSNRFSGVPSRFSGSGSGTDFTLTISSLQPEDFATYYCSQSTHVPLTFGQGTKVEIKR
B3: 18F7.v6, IgG (antibody, V domains shown)
VH: EVQLVESGGGLVQPGGSLRLSCAASGYTFIDYYMNWVRQAPGKGLEWVGDINLDNGGTHYNQKFKGRFTISRDKSKNTAYLQMNSLRAEDTAVYYCAREGVYHDYDDYAMDYWGQGTLVTVSS
VL: DIQMTQSPSSLSASVGDRVTITCRTSQSLVHINGITYLHWYQQKPGKAPKLLIYRVSNRFSGVPSRFSGSGSGTDFTLTISSLQPEDFATYYCGQSTHVPLTFGQGTKVEIKR
B4: 18F7.v9, IgG (antibody, V domains shown)
VH: EVQLVESGGGLVQPGGSLRLSCAASGYTFIDKYMNWVRQAPGKGLEWVGDINLDNGGTHYNQKFKGRFTISRDKSKNTAYLQMNSLRAEDTAVYYCAREGVYHDYDDYAMDYWGQGTLVTVSS
VL: DIQMTQSPSSLSASVGDRVTITCRTSQSLVHINGITYLHWYQQKPGKAPKLLIYRVSNRFSGVPSRFSGSGSGTDFTLTISSLQPEDFATYYCSQSTHVPLTFGQGTKVEIK
B5: 18F7.v8, IgG (antibody, V domains shown)
VH: EVQLVESGGGLVQPGGSLRLSCAASGYTFIDYYMNWVRQAPGKGLEWVGDINLDNGGTHYNQKFKGRFTISRDKSKNTAYLQMNSLRAEDTAVYYCAREGVYHDYDDYAMDYWGQGTLVTVSS
VL: DIQMTQSPSSLSASVGDRVTITCRTSQSLVHINGITYLHWYQQKPGKAPKLLIYRVSNRFSGVPSRFSGSGSGTDFTLTISSLQPEDFATYYCVQSTHVPLTFGQGTKVEIK
B6: 18F7.v5, IgG (antibody, V domains shown)
VH: EVQLVESGGGLVQPGGSLRLSCAASGYTFIDYYMNWVRQAPGKGLEWVGDINLDNGGTHYNQKFKGRFTISRDKSKNTAYLQMNSLRAEDTAVYYCAREGVYHDYDDYAMDYWGQGTLVTVSS
VL: DIQMTQSPSSLSASVGDRVTITCRTSQSLVHINGITYLHWYQQKPGKAPKLLIYRVSNRGSGVPSRFSGSGSGTDFTLTISSLQPEDFATYYCSQSTHVPLTFGQGTKVEIK
B7: 18F7.v7, IgG (antibody, V domains shown)
VH: EVQLVESGGGLVQPGGSLRLSCAASGYTFIDYYMNWVRQAPGKGLEWVGDINLDNGGTHYNQKFKGRFTISRDKSKNTAYLQMNSLRAEDTAVYYCAREGVYHDYDDYAMDYWGQGTLVTVSS
VL: DIQMTQSPSSLSASVGDRVTITCRTSQSLVHINGITYLHWYQQKPGKAPKLLIYRVSNRFSGVPSRFSGSGSGTDFTLTISSLQPEDFATYYCAQSTHVPLTFGQGTKVEIK
B8: 18F7.v4, IgG (antibody, name in Kabat numbering, V domains shown)
VH: EVQLVESGGGLVQPGGSLRLSCAASGYTFIDYYMNWVRQAPGKGLEWVGDINLDNGGTHYNQKFKGRFTISRDKSKNTVYLQMNSLRAEDTAVYYCAREGVYHDYDDYAMDYWGQGTLVTVSS
VL: DIQMTQSPSSLSASVGDRVTITCRTSQSLVHINGITYLHWYQQKPGKAPKLLIYRVSNRFSGVPSRFSGSGSGTDFTLTISSLQPEDFATYYCSQSTHVPLTFGQGTKVEIKR
B9: 18F7.v10, IgG (antibody, V domains shown)
VH: EVQLVESGGGLVQPGGSLRLSCAASGYTFIDYYMNWVRQAPGKGLEWVGDINLDNGGTHYNQKFKGRFTISRDKSKNTAYLQMNSLRAEDTAVYYCAREGVYHPYDDYAMDYWGQGTLVTVSS
VL: DIQMTQSPSSLSASVGDRVTITCRTSQSLVHINGITYLHWYQQKPGKAPKLLIYRVSNRFSGVPSRFSGSGSGTDFTLTISSLQPEDFATYYCSQSTHVPLTFGQGTKVEIK
B10: 18F7.v3, IgG (antibody, name in Kabat numbering, V domains shown)
VH: EVQLVESGGGLVQPGGSLRLSCAASGYTFIDYYMNWVRQAPGKGLEWVGDINLDNGGTHYNQKFKGRFTISRDKSKNTAYLQMNSLRAEDTAVYYCAREGVYHDYDDYAMDYWGQGTLVTVSS
VL: DIQMTQSPSSLSASVGDRVTITCRTSQSLVHINGITYLHWYQQKPGKAPKLLIYRVSNRFSGVPSRFSGSGSGTDFTLTISSLQPEDFATYYCSQSTHVPLTFGQGTKVEIKR
B11: 4F11.v1 Fab displayed on phage (Fab, V domains shown)
VH: EVQLVESGGGLVQPGGSLRLSCAASGHTFTTYGMSWVRQAPGKGLEWVGWINTHSGVPTYADDFKGRFTISRDNSKNTLYLQMNSLRAEDTAVYYCARLGSSAVDYWGQGTLVTVSS
VL: DIQMTQSPSSLSASVGDRVTITCKASQSVDYDGDSYMSWYQQKPGKAPKLLIYGASNLESGVPSRFSGSGSGTDFTLTISSLQPEDFATYYCQQNNEDPYTFGQGTKVEIKR
B12: 18F7-graft Fab displayed on phage (Fab, V domains shown)
VH: EVQLVESGGGLVQPGGSLRLSCAASGYTFIDYYMNWVRQAPGKGLEWVGDINLDNGGTHYNQKFKGRFTISRDNSKNTLYLQMNSLRAEDTAVYYCAREGVYHDYDDYAMDYWGQGTLVTVSS
VL: DIQMTQSPSSLSASVGDRVTITCRTSQSLVHINGITYLHWYQQKPGKAPKLLIYRVSNRFSGVPSRFSGSGSGTDFTLTISSLQPEDFATYYCSQSTHVPLTFGQGTKVEIKR

In one assay the target is T1, Mouse EGFL7 (mEGFL7-CB-His) (mouse). The assay is described as follows: SPR (Biacore).
With B1, the binding entry is “binds”.

B2: the binding entry was “binds”. Regarding B3, the binding entry is recorded as “binds”. B4: the binding entry is reported as “binds”.

As to B5, the binding entry is “binds”. As to B6, the binding entry is on record as “binds”.

With B7, the binding entry is listed as “binds”.

As to B8, the binding entry is given as “binds”.

With B9, the binding entry is on record as “binds”. Turning to B10, the binding result is listed as “binds”.

Another assay deals with T2, Full length human EGFL7 (human). The experiment in a line: phage binding to antigen immobilized on microtiter plate.
As to B11, the binding entry is listed as “binds”. Consider B12, for which the binding result is listed as “binds”.
